Measurements: patent US20220041582A1, “ISOXAZOLINE COMPOUNDS FOR CONTROLLING INVERTEBRATE PESTS” (FMC Corporation, priority 2018, published 2022)
Some entries share one result that the patent states for a list of compounds.

Legend:
Assay type in all cases: in vivo
[1] = test system: diamondback moth (Plutella xylostella (L.)); assay: Test A: control of diamondback moth on mustard plant, foliar spray; conditions: 6 days, 40% or less feeding damage and/or 100% mortality
[2] = test system: Western Flower Thrips (Frankliniellla occidentalis (Pergande)); assay: Test H: control of Western Flower Thrips through contact and/or systemic means; conditions: 6 days, 30% or less plant damage and/or 100% mortality
Procedure: Formulation and Spray Methodology for Tests A-H
Test compounds were formulated using a solution containing 10% acetone, 90% water and 300 ppm Activator 90® non-ionic surfactant (Loveland Products, Loveland, Colo., USA). The formulated compounds were applied in 1 mL of liquid through an atomizer nozzle positioned 1.27 cm (0.5 inches) above the top of each test unit. Test compounds were sprayed at the rates indicated, and each test was replicated three times.
For evaluating control of the Western Flower Thrips (Frankliniellla occidentalis (Pergande)) through contact and/or systemic means, the test unit consisted of a small open container with a 8-9-day-old Soleil bean plant inside.
Test compounds were formulated and sprayed at 250, 50, 10 and 2 ppm. After spraying, the test units were allowed to dry for 1 hour, and then ˜60 thrips (adults and nymphs) were added to each unit. A black, screened cap was placed on top, and the test units were held for 6 days at 25° C. and 45-55% relative humidity. Each test unit was then visually assessed for plant damage and insect mortality.

[3] = test system: fall armyworm (Spodoptera frugiperda (J. E. Smith)); assay: Test B: control of fall armyworm on corn plant, foliar spray; conditions: 6 days, 40% or less feeding damage and/or 100% mortality

Row | Compound | control efficacy: feeding damage (and/or 100% mortality) ([1]; 0.4 ppm spray) [%] | control efficacy: feeding damage (and/or 100% mortality) ([1]; 2 ppm spray) [%] | control efficacy: feeding damage (and/or 100% mortality) ([1]; 10 ppm spray) [%] | control efficacy: plant damage (and/or 100% mortality) ([2]; 2 ppm spray) [%] | control efficacy: plant damage (and/or 100% mortality) ([2]; 10 ppm spray) [%] | control efficacy: feeding damage (and/or 100% mortality) ([3]; 2 ppm spray) [%] | control efficacy: feeding damage (and/or 100% mortality) ([3]; 10 ppm spray) [%] | control efficacy: plant damage (and/or 100% mortality) ([2]; 0.4 ppm spray) [%] | control efficacy: feeding damage (and/or 100% mortality) ([3]; 0.4 ppm spray) [%]
1 | N#CC1(CNC(=O)c2ccc(C3=NOC(c4cc(Cl)c(F)c(Cl)c4)(C(F)(F)F)C3)c3ccncc23)CC1 (stereo not shown) [Compound 10] | ≤ 40 | ≤ 40 | ≤ 40 | ≤ 30 | ≤ 30 | ≤ 40 | ≤ 40 |  | 
2 | C[S+]([O-])CCNC(=O)c1ccc(C2=NOC(c3cc(Cl)c(F)c(Cl)c3)(C(F)(F)F)C2)c2ccncc12 (stereo not shown) [Compound 11] | ≤ 40 | ≤ 40 | ≤ 40 | ≤ 30 | ≤ 30 |  | ≤ 40 |  | 
3 | C[C@@H](NC(=O)c1ccc(C2=NOC(c3cc(Cl)c(F)c(Cl)c3)(C(F)(F)F)C2)c2ccncc12)c1ccccn1 (stereo partly shown) [Compound 13] | ≤ 40 | ≤ 40 | ≤ 40 | ≤ 30 | ≤ 30 | ≤ 40 | ≤ 40 | ≤ 30 | ≤ 40
4 | COCC(C)NC(=O)c1ccc(C2=NOC(c3cc(Cl)c(F)c(Cl)c3)(C(F)(F)F)C2)c2ccncc12 (stereo not shown) [Compound 20] | ≤ 40 | ≤ 40 | ≤ 40 | ≤ 30 | ≤ 30 | ≤ 40 | ≤ 40 |  | 
5 | O=C(NC1CC1)c1ccc(C2=NOC(c3cc(Cl)c(F)c(Cl)c3)(C(F)(F)F)C2)c2ccncc12 (stereo not shown) [Compound 23, N-cyclopropyl-5-[5-(3,5-dichloro-4-fluorophenyl)-4,5-dihydro-5-(trifluoromethyl)-3-isoxazolyl]-8-isoquinolinecarboxamide] | ≤ 40 | ≤ 40 | ≤ 40 | ≤ 30 | ≤ 30 | ≤ 40 | ≤ 40 | ≤ 30 | ≤ 40
6 | O=C(NCC1CCCO1)c1ccc(C2=NOC(c3cc(Cl)c(F)c(Cl)c3)(C(F)(F)F)C2)c2ccncc12 (stereo not shown) [Compound 26] | ≤ 40 | ≤ 40 | ≤ 40 | ≤ 30 | ≤ 30 |  | ≤ 40 |  | 
7 | CNC(=O)c1ccc(C2=NOC(c3cc(Cl)c(F)c(Cl)c3)(C(F)(F)F)C2)c2ccncc12 (stereo not shown) [Compound 27] | ≤ 40 | ≤ 40 | ≤ 40 | ≤ 30 | ≤ 30 |  | ≤ 40 |  | 
8 | CC(C)NC(=O)c1ccc(C2=NOC(c3cc(Cl)c(F)c(Cl)c3)(C(F)(F)F)C2)c2ccncc12 (stereo not shown) [Compound 28] | ≤ 40 | ≤ 40 | ≤ 40 | ≤ 30 |  | ≤ 40 | ≤ 40 | ≤ 30 | ≤ 40
9 | CCC(C)NC(=O)c1ccc(C2=NOC(c3cc(Cl)c(F)c(Cl)c3)(C(F)(F)F)C2)c2ccncc12 (stereo not shown) [Compound 33] | ≤ 40 | ≤ 40 | ≤ 40 | ≤ 30 | ≤ 30 | ≤ 40 | ≤ 40 |  | 
10 | O=C(NC1CC1)c1ccc(C2=NOC(c3cc(Cl)cc(C(F)(F)F)c3)(C(F)(F)F)C2)c2ccncc12 (stereo not shown) [Compound 35, 5-[5-[3-chloro-5-(trifluoromethyl)phenyl]-4,5-dihydro-5-(trifluoromethyl)-3-isoxazolyl]-N-cyclopropyl-8-isoquinolinecarboxamide] | ≤ 40 | ≤ 40 | ≤ 40 | ≤ 30 | ≤ 30 | ≤ 40 | ≤ 40 | ≤ 30 | ≤ 40
11 | O=C(NCC1CC1)c1ccc(C2=NOC(c3cc(Cl)cc(C(F)(F)F)c3)(C(F)(F)F)C2)c2ccncc12 (stereo not shown) [Compound 36, 5-[5-[3-chloro-5-(trifluoromethyl)phenyl]-4,5-dihydro-5-(trifluoromethyl)-3-isoxazolyl]-N-(cyclopropylmethyl)-8-isoquinolinecarboxamide] | ≤ 40 | ≤ 40 | ≤ 40 | ≤ 30 | ≤ 30 | ≤ 40 | ≤ 40 | ≤ 30 | ≤ 40
12 | CCNC(=O)c1ccc(C2=NOC(c3cc(Cl)c(F)c(Cl)c3)(C(F)(F)F)C2)c2ccncc12 (stereo not shown) [Compound 46, 5-[5-(3,5-dichloro-4-fluorophenyl)-4,5-dihydro-5-(trifluoromethyl)-3-isoxazolyl]-N-ethyl-8 soquinolinecarboxamide] | ≤ 40 | ≤ 40 | ≤ 40 | ≤ 30 | ≤ 30 | ≤ 40 | ≤ 40 | ≤ 30 | 
